Assay results taken from the supplement of paper PMC4635364.
Counter-ions that a name gives are not always drawn. The list shows a part of the results. This data set is noisy: repeats of one test often differ as much as different tests do.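 Cells: ReNCell VM human fetal ventral-midbrain neural progenitors, differentiated mitogen-free. Blinded raters compared doublecortin-stained (early neurons) or tyrosine hydroxylase-stained (dopaminergic neurons) images with untreated wells, where 0 means no change. After repeats and both raters were averaged, compounds scoring 2 or above became hits for retesting.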

Columns and labels:
ReNCell VM [1] = test: neuronal differentiation score (DCX+ cell fraction vs untreated, manual image score) (score (-3 to 3)); higher = more neuronal differentiation; settings: 2 uM, 2 weeks
ReNCell VM [2] = test: dopaminergic neuron differentiation score (TH+ cell fraction vs untreated, manual image score) (score (0 to 3)); higher = more TH+ dopaminergic neuron differentiation; settings: 2 uM, 4 weeks, BDNF 10 ng/ml + GDNF 10 ng/ml

## COc1c(O)cc2oc3cc(O)c(CC=C(C)C)c(O)c3c(=O)c2c1CC=C(C)C [mangostine]
ReNCell VM [1]; library: Natural
  neuronal differentiation score: inactive: 0
ReNCell VM [2]; library: Natural
  dopaminergic neuron differentiation score: inactive: 0

## Clc1ccc(COC(Cn2ccnc2)c2ccc(Cl)cc2Cl)cc1 (centres undefined)
ReNCell VM [1]; library: Spectrum
  neuronal differentiation score: inactive: 0
ReNCell VM [2]; library: Spectrum
  dopaminergic neuron differentiation score: inactive: 0

## N#C/C(=C(/N)Sc1ccc(N)cc1)c1ccccc1C(F)(F)F
ReNCell VM [1]; library: Tocriscreen
  neuronal differentiation score: inactive: 0
ReNCell VM [2]; library: Tocriscreen
  dopaminergic neuron differentiation score: inactive: 0

## CCN(CC)CCNC(=O)c1ccc(NC(C)=O)cc1
ReNCell VM [1]; library: Spectrum
  neuronal differentiation score: inactive: 0
ReNCell VM [2]; library: Spectrum
  dopaminergic neuron differentiation score: inactive: 0

## O=C(Nc1ccccc1)OCC(CN1CCCCC1)OC(=O)Nc1ccccc1 (centres undefined) [Diperodon hydrochloride]
ReNCell VM [1]; library: Prestwick
  neuronal differentiation score: inactive: 0
ReNCell VM [2]; library: Prestwick
  dopaminergic neuron differentiation score: inactive: 0

## COC(=O)N/N=C/c1c[n+]([O-])c2ccccc2[n+]1[O-]
ReNCell VM [1]; library: Spectrum
  neuronal differentiation score: inactive: 1
ReNCell VM [2]; library: Spectrum
  dopaminergic neuron differentiation score: inactive: 0

## NC(=O)c1cccc(N)c1 [3-aminobenzamide]
ReNCell VM [1]; library: LOPAC
  neuronal differentiation score: inactive: 0
ReNCell VM [2]; library: LOPAC
  dopaminergic neuron differentiation score: inactive: 0

## CC1=C(CCC(=O)O)c2cc3[nH]c(cc4nc(cc5[nH]c(cc1n2)c(C)c5C(C)O)C(C)=C4C(C)O)c(C)c3CCC(=O)O (centres undefined)
ReNCell VM [1]; library: Spectrum
  neuronal differentiation score: inactive: 0
ReNCell VM [2]; library: Spectrum
  dopaminergic neuron differentiation score: inactive: 0

## CCCCc1nn(-c2ccccc2C(F)(F)F)c(=O)n1Cc1ccc(-c2ccccc2S(=O)(=O)NC(=O)c2sccc2C)cc1
ReNCell VM [1]; library: Tocriscreen
  neuronal differentiation score: inactive: 0
ReNCell VM [2]; library: Tocriscreen
  dopaminergic neuron differentiation score: inactive: 0

## COC(=O)C[C@H]1C(C)(C)[C@@H](O)[C@@H]2CC3=C4CC(O)O[C@@H](c5ccoc5)[C@]4(C)CCC3[C@@]1(C)C2=O (stereo partly drawn) [3,16-DIDEOXYMEXICANOLIDE-3beta-DIOL]
ReNCell VM [1]; library: Spectrum
  neuronal differentiation score: inactive: 0
ReNCell VM [2]; library: Spectrum
  dopaminergic neuron differentiation score: inactive: 0

## CC(N)C(=O)OC(C)(C)Cc1ccc(Cl)cc1 (centres undefined)
ReNCell VM [1]; library: Spectrum
  neuronal differentiation score: inactive: 0
ReNCell VM [2]; library: Spectrum
  dopaminergic neuron differentiation score: inactive: 0

## O=C(O)c1cc2cc(Cc3cccnc3)ccc2o1 [Furegrelate sodium]
ReNCell VM [1]; library: LOPAC
  neuronal differentiation score: inactive: 0
ReNCell VM [2]; library: LOPAC
  dopaminergic neuron differentiation score: inactive: 0

## CC[C@]1(O)C[C@@H]2CN(CCc3c([nH]c4ccccc34)[C@@](C(=O)OC)(c3cc4c(cc3OC)N(C)[C@H]3[C@@](O)(C(=O)OC)[C@H](OC(C)=O)[C@]5(CC)C=CCN6CC[C@]43[C@@H]65)C2)C1 [Vinblastine sulfate]
ReNCell VM [1]; library: Tocriscreen
  neuronal differentiation score: inactive: 0
ReNCell VM [2]; library: Tocriscreen
  dopaminergic neuron differentiation score: inactive: 0

## c1ccc([C@H]2CN3CCSC3=N2)cc1
ReNCell VM [1]; library: Spectrum
  neuronal differentiation score: inactive: 0
ReNCell VM [2]; library: Spectrum
  dopaminergic neuron differentiation score: inactive: 0

## CC(C)NCC(O)c1cc(O)cc(O)c1 (centres undefined) [Metaproterenol hemisulfate]
ReNCell VM [1]; library: LOPAC
  neuronal differentiation score: inactive: 0
ReNCell VM [2]; library: LOPAC
  dopaminergic neuron differentiation score: inactive: 0

## O=c1cc(-c2ccccc2O)oc2cc(O)ccc12
ReNCell VM [1]; library: Spectrum
  neuronal differentiation score: inactive: 0
ReNCell VM [2]; library: Spectrum
  dopaminergic neuron differentiation score: inactive: 0

## CCCn1c(=O)[nH]c2nc(-c3ccc(S(=O)(=O)O)cc3)[nH]c2c1=O
ReNCell VM [1]; library: Tocriscreen
  neuronal differentiation score: inactive: 0
ReNCell VM [2]; library: Tocriscreen
  dopaminergic neuron differentiation score: inactive: 0

## Cc1cc(C(C)(C)CC(C)(C)C)ccc1OCCOCC[N+](C)(C)Cc1ccccc1 [Methyl benzethonium chloride]
ReNCell VM [1]; library: Prestwick
  neuronal differentiation score: inactive: 0
ReNCell VM [2]; library: Prestwick
  dopaminergic neuron differentiation score: inactive: 0

## COc1ccc(/C=C/C(=O)c2ccc(O)cc2O)cc1
ReNCell VM [1]; library: Spectrum
  neuronal differentiation score: inactive: 0
ReNCell VM [2]; library: Spectrum
  dopaminergic neuron differentiation score: inactive: 0

## CC(CN(C)C)CN1c2ccccc2CCc2ccccc21 (centres undefined) [Trimipramine maleate salt]
ReNCell VM [1]; library: Prestwick
  neuronal differentiation score: inactive: 0
ReNCell VM [2]; library: Prestwick
  dopaminergic neuron differentiation score: inactive: 0

## C/C=C(/C)C(=O)O[C@@H]1[C@H](OC(=O)[C@@]2(C)O[C@H]2C)c2cc3ccc(=O)oc3cc2OC1(C)C [peuarenarine]
ReNCell VM [1]; library: Natural
  neuronal differentiation score: inactive: 0
ReNCell VM [2]; library: Natural
  dopaminergic neuron differentiation score: inactive: 0

## CN(C)[C@@H]1C(O)=C(C(=O)NCNCCCC[C@H](N)C(=O)O)C(=O)[C@@]2(O)C(O)=C3C(=O)c4c(O)cccc4[C@@](C)(O)[C@H]3C[C@@H]12 [Lymecycline]
ReNCell VM [1]; library: Prestwick
  neuronal differentiation score: inactive: 0
ReNCell VM [2]; library: Prestwick
  dopaminergic neuron differentiation score: inactive: 0

## O=C1NCCN1CCN1CCC(c2cn(-c3ccc(F)cc3)c3ccc(Cl)cc23)CC1 [Sertindole]
ReNCell VM [1]; library: Prestwick
  neuronal differentiation score: inactive: 0
ReNCell VM [2]; library: Prestwick
  dopaminergic neuron differentiation score: inactive: 0

## COc1cc(C(=O)NS(=O)(=O)c2ccccc2C)ccc1Cc1cn(C)c2ccc(NC(=O)OC3CCCC3)cc12 [Zafirlukast]
ReNCell VM [1]; library: Prestwick
  neuronal differentiation score: inactive: 0
ReNCell VM [2]; library: Prestwick
  dopaminergic neuron differentiation score: inactive: 0

## CC#C[C@]1(O)CC[C@H]2[C@@H]3CCC4=CC(=O)CCC4=C3[C@@H](c3ccc(N(C)C)cc3)C[C@@]21C
ReNCell VM [1]; library: Spectrum
  neuronal differentiation score: inactive: -1
ReNCell VM [2]; library: Spectrum
  dopaminergic neuron differentiation score: inactive: 0

## CC1(C)CC(=O)C(C2C3=C(CC(C)(C)CC3=O)Oc3ccccc32)C(=O)C1 (centres undefined)
ReNCell VM [1]; library: Tocriscreen
  neuronal differentiation score: inactive: 0
ReNCell VM [2]; library: Tocriscreen
  dopaminergic neuron differentiation score: inactive: 0

## O=c1c(O)c(-c2ccc(O)cc2)oc2cc(O)cc(O)c12
ReNCell VM [1]; library: Spectrum
  neuronal differentiation score: inactive: -1
ReNCell VM [2]; library: Spectrum
  dopaminergic neuron differentiation score: inactive: 0

## COC(=O)C[C@H]1C(C)(C)[C@@H](OC(C)=O)[C@@H]2CC3=C4CC(=O)O[C@@H](c5ccoc5)[C@]4(C)CC[C@@H]3[C@@]1(C)C2=O
ReNCell VM [1]; library: Spectrum
  neuronal differentiation score: inactive: 0
ReNCell VM [2]; library: Spectrum
  dopaminergic neuron differentiation score: inactive: 0

## CC[C@H](C)C(=O)O[C@H]1C[C@H](O)C=C2C=C[C@H](C)[C@H](CC[C@@H](O)C[C@@H](O)CC(=O)O)[C@H]21 [Pravastatin sodium salt]
ReNCell VM [1]; library: Tocriscreen
  neuronal differentiation score: inactive: 0
ReNCell VM [2]; library: Tocriscreen
  dopaminergic neuron differentiation score: inactive: 0

## CC1(C)O[C@@H]2C[C@H]3[C@@H]4CCC5=CC(=O)C=C[C@]5(C)[C@@]4(F)[C@@H](O)C[C@]3(C)[C@]2(C(=O)CO)O1
ReNCell VM [1]; library: Spectrum
  neuronal differentiation score: inactive: 0
ReNCell VM [2]; library: Spectrum
  dopaminergic neuron differentiation score: inactive: 0

## CCOC(=O)c1ncn2c1CN(C)C(=O)c1cc(F)ccc1-2
ReNCell VM [1]; library: Spectrum
  neuronal differentiation score: inactive: 0
ReNCell VM [2]; library: Spectrum
  dopaminergic neuron differentiation score: inactive: 0

## NCC(=O)CCC(=O)O
ReNCell VM [1]; library: Spectrum
  neuronal differentiation score: inactive: -1
ReNCell VM [2]; library: Spectrum
  dopaminergic neuron differentiation score: inactive: 0
